The supplement of paper PMC10032668
± gives the standard deviation of the averaged measurements. The list shows a part of the results. The list holds hits alone, and they repeat only in part.

Amino acid sequences for entries named in this document (tags omitted).
APEX1, P27695, UniProt P27695, whole entry: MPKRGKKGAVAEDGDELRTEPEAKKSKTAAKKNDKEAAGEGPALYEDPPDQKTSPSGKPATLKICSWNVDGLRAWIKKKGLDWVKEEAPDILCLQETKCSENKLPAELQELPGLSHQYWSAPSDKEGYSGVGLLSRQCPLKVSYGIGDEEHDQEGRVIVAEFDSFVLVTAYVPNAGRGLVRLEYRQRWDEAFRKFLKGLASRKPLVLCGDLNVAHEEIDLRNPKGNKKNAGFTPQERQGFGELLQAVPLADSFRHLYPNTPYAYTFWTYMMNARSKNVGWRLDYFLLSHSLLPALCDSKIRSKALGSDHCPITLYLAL
CHMP2B, Q9UQN3, UniProt Q9UQN3, whole entry: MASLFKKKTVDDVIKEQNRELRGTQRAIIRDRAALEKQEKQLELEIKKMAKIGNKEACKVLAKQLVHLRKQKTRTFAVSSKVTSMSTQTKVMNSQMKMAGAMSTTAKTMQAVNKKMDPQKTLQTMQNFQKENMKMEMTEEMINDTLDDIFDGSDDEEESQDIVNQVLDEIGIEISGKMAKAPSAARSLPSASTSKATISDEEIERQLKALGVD
CKS2, P33552, UniProt P33552, whole entry: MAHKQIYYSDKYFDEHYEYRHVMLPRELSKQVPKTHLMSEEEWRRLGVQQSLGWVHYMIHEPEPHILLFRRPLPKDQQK
EIF1, P41567, UniProt P41567, whole entry: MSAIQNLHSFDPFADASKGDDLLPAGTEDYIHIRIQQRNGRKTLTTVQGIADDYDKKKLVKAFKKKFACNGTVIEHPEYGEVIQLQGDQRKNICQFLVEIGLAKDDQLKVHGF
EIF4E, P06730, UniProt P06730, whole entry: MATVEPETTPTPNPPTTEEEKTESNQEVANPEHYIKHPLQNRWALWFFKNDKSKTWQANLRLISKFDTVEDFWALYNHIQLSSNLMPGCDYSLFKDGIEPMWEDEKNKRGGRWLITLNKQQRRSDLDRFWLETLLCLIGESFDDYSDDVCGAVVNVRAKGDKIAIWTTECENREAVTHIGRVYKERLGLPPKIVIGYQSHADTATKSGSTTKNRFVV
HBS1L, Q9Y450, UniProt Q9Y450, whole entry: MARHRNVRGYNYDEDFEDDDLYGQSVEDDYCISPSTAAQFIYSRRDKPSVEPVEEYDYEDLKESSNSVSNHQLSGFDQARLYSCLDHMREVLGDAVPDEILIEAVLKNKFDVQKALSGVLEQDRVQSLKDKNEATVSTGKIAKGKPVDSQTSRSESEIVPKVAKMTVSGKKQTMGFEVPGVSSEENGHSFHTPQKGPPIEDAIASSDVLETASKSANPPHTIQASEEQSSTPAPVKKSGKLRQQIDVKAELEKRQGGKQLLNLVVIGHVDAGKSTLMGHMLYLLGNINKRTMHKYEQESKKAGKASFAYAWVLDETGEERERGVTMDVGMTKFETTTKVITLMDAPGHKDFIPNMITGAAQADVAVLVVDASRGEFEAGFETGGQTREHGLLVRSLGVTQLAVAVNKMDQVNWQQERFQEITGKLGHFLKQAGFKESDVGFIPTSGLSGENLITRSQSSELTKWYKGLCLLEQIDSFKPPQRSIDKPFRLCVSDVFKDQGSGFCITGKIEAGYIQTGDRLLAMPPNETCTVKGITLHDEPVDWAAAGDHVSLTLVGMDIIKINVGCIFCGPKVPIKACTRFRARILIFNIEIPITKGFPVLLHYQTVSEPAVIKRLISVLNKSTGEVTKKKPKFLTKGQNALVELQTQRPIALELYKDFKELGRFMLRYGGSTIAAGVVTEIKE
HIST1H1E, P10412, UniProt P10412, whole entry: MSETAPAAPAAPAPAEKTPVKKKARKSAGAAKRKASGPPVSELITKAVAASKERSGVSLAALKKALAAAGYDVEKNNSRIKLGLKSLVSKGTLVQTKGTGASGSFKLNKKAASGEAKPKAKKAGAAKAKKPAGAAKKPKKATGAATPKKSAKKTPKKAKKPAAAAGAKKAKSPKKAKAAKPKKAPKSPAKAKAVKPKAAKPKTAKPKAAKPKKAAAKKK
KHDRBS1, Q07666, UniProt Q07666, whole entry: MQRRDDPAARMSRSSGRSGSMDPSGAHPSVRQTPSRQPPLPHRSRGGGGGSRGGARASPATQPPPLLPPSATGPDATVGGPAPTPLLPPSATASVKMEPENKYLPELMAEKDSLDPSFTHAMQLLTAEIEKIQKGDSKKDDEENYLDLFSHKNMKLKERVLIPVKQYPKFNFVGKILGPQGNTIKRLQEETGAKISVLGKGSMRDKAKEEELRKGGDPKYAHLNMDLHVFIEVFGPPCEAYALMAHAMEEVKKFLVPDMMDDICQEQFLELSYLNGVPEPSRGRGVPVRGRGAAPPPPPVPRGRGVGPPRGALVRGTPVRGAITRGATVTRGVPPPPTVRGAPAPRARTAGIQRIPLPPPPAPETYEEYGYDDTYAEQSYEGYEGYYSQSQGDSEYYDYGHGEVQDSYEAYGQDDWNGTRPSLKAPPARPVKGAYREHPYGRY
MORF4L2, Q15014, UniProt Q15014, whole entry: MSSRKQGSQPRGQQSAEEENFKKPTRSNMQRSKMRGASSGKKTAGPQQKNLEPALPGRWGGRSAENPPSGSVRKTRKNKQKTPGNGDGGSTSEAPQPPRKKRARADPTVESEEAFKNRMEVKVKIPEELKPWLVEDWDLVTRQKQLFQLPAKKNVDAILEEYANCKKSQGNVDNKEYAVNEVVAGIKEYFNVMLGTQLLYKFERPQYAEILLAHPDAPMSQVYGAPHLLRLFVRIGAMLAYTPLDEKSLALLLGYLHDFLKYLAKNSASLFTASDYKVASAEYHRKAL
PIN1, Q13526, UniProt Q13526, whole entry: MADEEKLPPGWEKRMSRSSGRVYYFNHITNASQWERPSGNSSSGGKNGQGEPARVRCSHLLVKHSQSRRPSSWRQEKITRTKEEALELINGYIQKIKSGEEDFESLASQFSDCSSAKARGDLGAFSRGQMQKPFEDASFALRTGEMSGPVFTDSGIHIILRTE
TUBGCP3, Q96CW5, UniProt Q96CW5, whole entry: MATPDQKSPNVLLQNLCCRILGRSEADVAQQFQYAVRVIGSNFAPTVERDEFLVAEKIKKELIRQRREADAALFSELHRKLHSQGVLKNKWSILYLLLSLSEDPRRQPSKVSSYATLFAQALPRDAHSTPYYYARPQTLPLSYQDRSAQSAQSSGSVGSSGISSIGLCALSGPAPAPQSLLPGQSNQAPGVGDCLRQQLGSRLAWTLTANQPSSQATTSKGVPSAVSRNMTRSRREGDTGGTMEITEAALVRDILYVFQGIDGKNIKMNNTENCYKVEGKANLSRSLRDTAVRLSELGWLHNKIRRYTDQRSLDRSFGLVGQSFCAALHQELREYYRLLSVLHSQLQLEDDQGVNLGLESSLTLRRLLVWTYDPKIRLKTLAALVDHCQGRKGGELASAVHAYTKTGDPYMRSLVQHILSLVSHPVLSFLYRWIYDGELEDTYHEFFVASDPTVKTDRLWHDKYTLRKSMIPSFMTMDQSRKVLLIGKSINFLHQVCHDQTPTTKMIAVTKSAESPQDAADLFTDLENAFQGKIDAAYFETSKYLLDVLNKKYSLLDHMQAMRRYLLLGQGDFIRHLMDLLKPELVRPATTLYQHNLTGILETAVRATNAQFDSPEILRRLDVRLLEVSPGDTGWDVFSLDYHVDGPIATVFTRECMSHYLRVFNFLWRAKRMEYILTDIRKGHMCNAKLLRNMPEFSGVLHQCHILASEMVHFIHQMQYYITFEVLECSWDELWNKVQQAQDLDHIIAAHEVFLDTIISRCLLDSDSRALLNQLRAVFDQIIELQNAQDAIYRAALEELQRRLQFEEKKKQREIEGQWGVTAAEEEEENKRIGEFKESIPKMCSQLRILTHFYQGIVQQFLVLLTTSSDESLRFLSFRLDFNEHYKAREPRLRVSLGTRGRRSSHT
UBE2I, P63279, UniProt P63279, whole entry: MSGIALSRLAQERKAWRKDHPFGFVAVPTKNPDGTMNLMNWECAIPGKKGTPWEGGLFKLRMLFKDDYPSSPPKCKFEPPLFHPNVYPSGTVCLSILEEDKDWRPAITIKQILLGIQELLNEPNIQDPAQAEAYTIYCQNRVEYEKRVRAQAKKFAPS
UFM1, P61960, UniProt P61960, whole entry: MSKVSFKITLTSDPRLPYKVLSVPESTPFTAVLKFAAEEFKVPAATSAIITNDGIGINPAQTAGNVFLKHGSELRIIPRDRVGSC
YBX3, P16989, UniProt P16989, whole entry: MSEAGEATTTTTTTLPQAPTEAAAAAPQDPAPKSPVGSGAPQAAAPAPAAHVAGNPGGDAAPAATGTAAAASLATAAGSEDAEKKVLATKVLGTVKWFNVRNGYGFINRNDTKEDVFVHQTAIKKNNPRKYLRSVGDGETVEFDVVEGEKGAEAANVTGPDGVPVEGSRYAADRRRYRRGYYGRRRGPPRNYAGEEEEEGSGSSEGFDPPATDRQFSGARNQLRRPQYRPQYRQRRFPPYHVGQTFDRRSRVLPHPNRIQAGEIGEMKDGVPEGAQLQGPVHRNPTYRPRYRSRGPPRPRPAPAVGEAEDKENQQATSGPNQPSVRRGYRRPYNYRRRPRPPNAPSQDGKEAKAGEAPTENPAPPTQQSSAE

Columns and labels:
Assay in all cases: PRISMA enrichment of interactor (LFQ) in peptide spot vs all other peptide spots (log2 fold change); higher = stronger / more specific binding of the interactor to the peptide
[1] = target: ACAT1, P24752
Method: (§1)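 PRISMA: 15-aa overlapping tiles (offset 8 aa) of 60 microproteins, plus SOS1/GLUT1 control peptides, were spot-synthesized on cellulose membranes in triplicate. Membranes were incubated with benzonase-treated HEK293T lysate, and bound proteins were identified by LC-MS/MS with LFQ. Enrichment is the log2 fold change of each protein in one spot versus all other spots. Only interactors passing the significance cutoff are listed.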

[2] = target: ALYREF, Q86V81
Method: as §1

[3] = target: APEX1, P27695
Method: as §1

[4] = target: BOLA3, Q53S33
Method: as §1

[5] = target: C19orf53, Q9UNZ5
Method: as §1

[6] = target: CDCA5, Q96FF9
Method: as §1

[7] = target: CHMP2B, Q9UQN3
Method: as §1

[8] = target: CHTOP, Q9Y3Y2
Method: as §1

[9] = target: CIRBP, Q14011
Method: as §1

[10] = target: CKS2, P33552
Method: as §1

[11] = target: CLTA, P09496
Method: as §1

[12] = target: COA7, Q96BR5
Method: as §1

[13] = target: CSNK1A1, P48729
Method: as §1

[14] = target: CSRP2, Q16527
Method: as §1

[15] = target: CXorf56, Q9H5V9
Method: as §1

[16] = target: DECR1, Q16698
Method: as §1

[17] = target: DERPC, P0CG12
Method: as §1

[18] = target: DNAJC8, O75937
Method: as §1

[19] = target: EDF1, O60869
Method: as §1

[20] = target: EIF1, P41567
Method: as §1

[21] = target: EIF4E, P06730
Method: as §1

[22] = target: EIF4H, Q15056
Method: as §1

[23] = target: EMG1, Q92979
Method: as §1

[24] = target: EWSR1, Q01844
Method: as §1

[25] = target: FAM98B, Q52LJ0
Method: as §1

[26] = target: FBXO5, Q9UKT4
Method: as §1

[27] = target: FKBP2, P26885
Method: as §1

[28] = target: FUS, P35637
Method: as §1

[29] = target: G3BP2, Q9UN86
Method: as §1

[30] = target: GABARAPL2, P60520
Method: as §1

[31] = target: GIPC1, O14908
Method: as §1

[32] = target: HBS1L, Q9Y450
Method: as §1

[33] = target: HIST1H1E, P10412
Method: as §1

[34] = target: HMGB1, P09429
Method: as §1

[35] = target: HMGB2, P26583
Method: as §1

[36] = target: HNRNPA0, Q13151
Method: as §1

[37] = target: HNRNPA1, P09651
Method: as §1

[38] = target: HNRNPA2B1, P22626
Method: as §1

[39] = target: HNRNPA3, P51991
Method: as §1

[40] = target: KHDRBS1, Q07666
Method: as §1

[41] = target: LSM12, Q3MHD2
Method: as §1

[42] = target: MAZ, P56270
Method: as §1

[43] = target: MORF4L2, Q15014
Method: as §1

[44] = target: MUC19, Q7Z5P9
Method: as §1

[45] = target: NFX1, Q12986
Method: as §1

[46] = target: NIFK, Q9BYG3
Method: as §1

[47] = target: NOL12, Q9UGY1
Method: as §1

[48] = target: NOL7, Q9UMY1
Method: as §1

[49] = substrate: NONO, Q15233
Method: as §1

[50] = substrate: NOSIP, Q9Y314
Method: as §1

[51] = target: PCLAF, Q15004
Method: as §1

[52] = substrate: PCNP, Q8WW12
Method: as §1

[53] = target: PIN1, Q13526
Method: as §1

[54] = substrate: PPIF, P30405
Method: as §1

[55] = target: PSPC1, Q8WXF1
Method: as §1

[56] = target: PTBP1, P26599
Method: as §1

[57] = target: PYCR1, P32322
Method: as §1

[58] = target: PYCR2, Q96C36
Method: as §1

[59] = target: RBIS, Q8N0T1
Method: as §1

[60] = target: RBM3, P98179
Method: as §1

[61] = target: RBMX, P38159
Method: as §1

[62] = target: RBMXL1, Q96E39
Method: as §1

[63] = target: RPGRIP1L, Q68CZ1
Method: as §1

[64] = target: SERF2, P84101
Method: as §1

[65] = target: SFPQ, P23246
Method: as §1

[66] = target: SLC9A3R2, Q15599
Method: as §1

[67] = target: SMNDC1, O75940
Method: as §1

[68] = target: STMN2, Q93045
Method: as §1

[69] = target: TMA16, Q96EY4
Method: as §1

[70] = target: TUBGCP3, Q96CW5
Method: as §1

[71] = target: UBE2I, P63279
Method: as §1

[72] = target: UBE2M, P61081
Method: as §1

[73] = target: UFM1, P61960
Method: as §1

[74] = target: UTP23, Q9BRU9
Method: as §1

[75] = target: YBX3, P16989
Method: as §1

[76] = target: ZMAT2, Q96NC0
Method: as §1

[77] = target: ZNF593, O00488
Method: as §1

[78] = target: hCG_2014768
Method: as §1

B1: NAV2-AS2_2 (peptide)
chain: VWEMTGFFLPDVLLS
[1]
  PRISMA enrichment of interactor (log2): 5.56
[2]
  PRISMA enrichment of interactor (log2): 7.4 ± 1.3
[3]
  PRISMA enrichment of interactor (log2): 4.1
[4]
  PRISMA enrichment of interactor (log2): 4.28
[5]
  PRISMA enrichment of interactor (log2): 7.5
[6]
  PRISMA enrichment of interactor (log2): 4.54
[7]
  PRISMA enrichment of interactor (log2): 4.12
[8]
  PRISMA enrichment of interactor (log2): 6.83
[9]
  PRISMA enrichment of interactor (log2): 6.31
[10]
  PRISMA enrichment of interactor (log2): 6.22
[11]
  PRISMA enrichment of interactor (log2): 4.9
[12]
  PRISMA enrichment of interactor (log2): 4.94
[13]
  PRISMA enrichment of interactor (log2): 5.11
[14]
  PRISMA enrichment of interactor (log2): 6.59
[15]
  PRISMA enrichment of interactor (log2): 5.75
[16]
  PRISMA enrichment of interactor (log2): 5.02
[17]
  PRISMA enrichment of interactor (log2): 4.25
[18]
  PRISMA enrichment of interactor (log2): 5.25
[19]
  PRISMA enrichment of interactor (log2): 4.81
[20]
  PRISMA enrichment of interactor (log2): 4.55
[21]
  PRISMA enrichment of interactor (log2): 5.36
[22]
  PRISMA enrichment of interactor (log2): 5.71
[23]
  PRISMA enrichment of interactor (log2): 5.62
[24]
  PRISMA enrichment of interactor (log2): 6.8
[25]
  PRISMA enrichment of interactor (log2): 5.13
[26]
  PRISMA enrichment of interactor (log2): 5.94
[27]
  PRISMA enrichment of interactor (log2): 4.72
[28]
  PRISMA enrichment of interactor (log2): 6.74
[29]
  PRISMA enrichment of interactor (log2): 6.34
[30]
  PRISMA enrichment of interactor (log2): 5.63
[31]
  PRISMA enrichment of interactor (log2): 3.99
[32]
  PRISMA enrichment of interactor (log2): 3.98
[33]
  PRISMA enrichment of interactor (log2): 5.43
[34]
  PRISMA enrichment of interactor (log2): 6.82
[35]
  PRISMA enrichment of interactor (log2): 4.15
[36]
  PRISMA enrichment of interactor (log2): 6.16
[37]
  PRISMA enrichment of interactor (log2): 7.43
[38]
  PRISMA enrichment of interactor (log2): 5.46
[39]
  PRISMA enrichment of interactor (log2): 5.55
[40]
  PRISMA enrichment of interactor (log2): 6.93
[41]
  PRISMA enrichment of interactor (log2): 5.46
[42]
  PRISMA enrichment of interactor (log2): 4.8
[43]
  PRISMA enrichment of interactor (log2): 5.51
[44]
  PRISMA enrichment of interactor (log2): 6.94
[45]
  PRISMA enrichment of interactor (log2): 4.27
[46]
  PRISMA enrichment of interactor (log2): 4.45
[47]
  PRISMA enrichment of interactor (log2): 4.57
[48]
  PRISMA enrichment of interactor (log2): 4.4
[49]
  PRISMA enrichment of interactor (log2): 5.38
[50]
  PRISMA enrichment of interactor (log2): 4.32
[51]
  PRISMA enrichment of interactor (log2): 4.97
[52]
  PRISMA enrichment of interactor (log2): 3.9
[53]
  PRISMA enrichment of interactor (log2): 5.47
[54]
  PRISMA enrichment of interactor (log2): 4.49
[55]
  PRISMA enrichment of interactor (log2): 4.9
[56]
  PRISMA enrichment of interactor (log2): 4.93
[57]
  PRISMA enrichment of interactor (log2): 5.13
[58]
  PRISMA enrichment of interactor (log2): 4.59
[59]
  PRISMA enrichment of interactor (log2): 4.9
[60]
  PRISMA enrichment of interactor (log2): 5.56
[61]
  PRISMA enrichment of interactor (log2): 4.9
[62]
  PRISMA enrichment of interactor (log2): 3.87
[63]
  PRISMA enrichment of interactor (log2): 3.82
[64]
  PRISMA enrichment of interactor (log2): 6.83
[65]
  PRISMA enrichment of interactor (log2): 5.44
[66]
  PRISMA enrichment of interactor (log2): 4.68
[67]
  PRISMA enrichment of interactor (log2): 4.58
[68]
  PRISMA enrichment of interactor (log2): 4.26
[69]
  PRISMA enrichment of interactor (log2): 4.41
[70]
  PRISMA enrichment of interactor (log2): 4.09
[71]
  PRISMA enrichment of interactor (log2): 4.04
[72]
  PRISMA enrichment of interactor (log2): 4.24
[73]
  PRISMA enrichment of interactor (log2): 4.15
[74]
  PRISMA enrichment of interactor (log2): 4.88
[75]
  PRISMA enrichment of interactor (log2): 4.28
[76]
  PRISMA enrichment of interactor (log2): 3.93
[77]
  PRISMA enrichment of interactor (log2): 4.89
[78]
  PRISMA enrichment of interactor (log2): 4.72
